Results published in the supplement of paper PMC10849652.
This is one part of the list.

Sequences of proteins named here, by UniProt entry; tags and fusion partners are left off. A change or cut given only in a name is not applied to a line headed by its entry.
UniProt Q9NU19: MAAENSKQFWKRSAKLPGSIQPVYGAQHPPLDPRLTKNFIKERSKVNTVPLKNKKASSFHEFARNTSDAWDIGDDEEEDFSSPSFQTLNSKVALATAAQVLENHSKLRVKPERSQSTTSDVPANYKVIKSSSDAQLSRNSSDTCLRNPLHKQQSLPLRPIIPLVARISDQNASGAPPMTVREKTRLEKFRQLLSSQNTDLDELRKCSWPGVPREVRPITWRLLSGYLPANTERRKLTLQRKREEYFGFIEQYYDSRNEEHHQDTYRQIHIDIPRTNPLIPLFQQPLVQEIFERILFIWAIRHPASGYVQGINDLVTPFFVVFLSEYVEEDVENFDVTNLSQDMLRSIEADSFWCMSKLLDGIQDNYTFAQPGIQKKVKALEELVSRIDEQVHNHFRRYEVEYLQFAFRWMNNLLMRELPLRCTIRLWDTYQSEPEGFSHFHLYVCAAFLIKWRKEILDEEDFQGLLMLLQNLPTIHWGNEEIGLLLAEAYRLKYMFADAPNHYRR
UniProt Q15814: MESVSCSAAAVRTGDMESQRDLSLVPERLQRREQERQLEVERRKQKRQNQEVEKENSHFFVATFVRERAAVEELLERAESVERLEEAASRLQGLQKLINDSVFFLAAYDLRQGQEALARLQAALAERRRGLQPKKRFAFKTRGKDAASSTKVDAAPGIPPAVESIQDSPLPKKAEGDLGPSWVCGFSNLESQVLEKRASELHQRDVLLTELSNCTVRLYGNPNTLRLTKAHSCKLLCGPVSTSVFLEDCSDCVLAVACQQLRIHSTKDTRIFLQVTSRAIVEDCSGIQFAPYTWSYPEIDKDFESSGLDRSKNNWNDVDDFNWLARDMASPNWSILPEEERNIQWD
UniProt Q9BTF0: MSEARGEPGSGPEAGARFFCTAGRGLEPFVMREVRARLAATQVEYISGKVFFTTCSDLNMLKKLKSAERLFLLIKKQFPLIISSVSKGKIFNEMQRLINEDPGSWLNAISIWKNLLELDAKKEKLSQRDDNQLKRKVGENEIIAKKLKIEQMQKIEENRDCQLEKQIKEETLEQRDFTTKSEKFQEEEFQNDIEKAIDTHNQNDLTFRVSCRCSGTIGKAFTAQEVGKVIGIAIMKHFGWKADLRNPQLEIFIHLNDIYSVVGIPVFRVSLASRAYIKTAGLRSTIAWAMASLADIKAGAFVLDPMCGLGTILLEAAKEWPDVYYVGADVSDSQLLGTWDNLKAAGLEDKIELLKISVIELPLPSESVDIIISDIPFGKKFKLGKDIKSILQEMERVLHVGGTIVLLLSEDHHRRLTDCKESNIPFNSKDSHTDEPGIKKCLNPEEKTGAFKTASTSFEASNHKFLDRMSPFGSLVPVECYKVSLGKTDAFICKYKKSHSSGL
UniProt Q9Y5J7: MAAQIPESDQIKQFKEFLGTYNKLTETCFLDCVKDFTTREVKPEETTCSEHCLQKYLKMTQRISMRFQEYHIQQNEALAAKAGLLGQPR
UniProt Q9Y584: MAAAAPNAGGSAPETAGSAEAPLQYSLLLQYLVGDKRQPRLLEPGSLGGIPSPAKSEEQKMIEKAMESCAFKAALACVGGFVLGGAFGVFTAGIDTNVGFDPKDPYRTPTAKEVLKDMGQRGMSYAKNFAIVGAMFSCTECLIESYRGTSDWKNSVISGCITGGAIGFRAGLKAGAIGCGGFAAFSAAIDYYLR
UniProt Q66K14, whole entry, looked up: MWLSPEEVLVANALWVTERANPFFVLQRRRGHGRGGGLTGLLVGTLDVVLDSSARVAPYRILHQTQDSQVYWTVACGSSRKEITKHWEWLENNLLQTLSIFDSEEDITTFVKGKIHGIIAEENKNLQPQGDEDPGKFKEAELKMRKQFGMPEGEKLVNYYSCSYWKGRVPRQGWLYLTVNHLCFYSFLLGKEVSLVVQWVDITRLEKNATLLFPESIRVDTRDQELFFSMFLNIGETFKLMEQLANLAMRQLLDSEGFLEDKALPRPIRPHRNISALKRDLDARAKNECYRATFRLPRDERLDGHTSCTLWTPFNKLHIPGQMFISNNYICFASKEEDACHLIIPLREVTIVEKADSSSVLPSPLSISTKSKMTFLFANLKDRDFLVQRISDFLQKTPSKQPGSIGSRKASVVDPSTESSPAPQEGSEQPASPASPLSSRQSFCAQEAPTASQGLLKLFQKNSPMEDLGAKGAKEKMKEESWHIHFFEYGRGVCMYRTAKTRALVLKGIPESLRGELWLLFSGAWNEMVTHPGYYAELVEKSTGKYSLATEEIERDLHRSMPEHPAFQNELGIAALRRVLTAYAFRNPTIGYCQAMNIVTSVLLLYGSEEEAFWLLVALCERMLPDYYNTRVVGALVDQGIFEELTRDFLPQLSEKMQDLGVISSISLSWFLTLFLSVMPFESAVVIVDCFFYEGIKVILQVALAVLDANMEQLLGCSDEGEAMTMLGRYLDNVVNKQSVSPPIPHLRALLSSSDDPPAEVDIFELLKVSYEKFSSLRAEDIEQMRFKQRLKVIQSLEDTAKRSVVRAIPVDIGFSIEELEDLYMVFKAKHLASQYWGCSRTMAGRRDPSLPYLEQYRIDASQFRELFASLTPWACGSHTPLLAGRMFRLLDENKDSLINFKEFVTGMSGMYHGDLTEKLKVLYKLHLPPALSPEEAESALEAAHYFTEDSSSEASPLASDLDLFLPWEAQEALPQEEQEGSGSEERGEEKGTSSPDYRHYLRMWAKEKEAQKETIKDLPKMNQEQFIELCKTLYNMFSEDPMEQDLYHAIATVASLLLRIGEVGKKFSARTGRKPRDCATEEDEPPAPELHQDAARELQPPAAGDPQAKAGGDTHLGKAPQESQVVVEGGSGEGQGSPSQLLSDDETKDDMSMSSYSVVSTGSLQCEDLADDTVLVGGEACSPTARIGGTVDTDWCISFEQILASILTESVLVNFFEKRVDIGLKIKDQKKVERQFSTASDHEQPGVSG
UniProt Q9NYB0: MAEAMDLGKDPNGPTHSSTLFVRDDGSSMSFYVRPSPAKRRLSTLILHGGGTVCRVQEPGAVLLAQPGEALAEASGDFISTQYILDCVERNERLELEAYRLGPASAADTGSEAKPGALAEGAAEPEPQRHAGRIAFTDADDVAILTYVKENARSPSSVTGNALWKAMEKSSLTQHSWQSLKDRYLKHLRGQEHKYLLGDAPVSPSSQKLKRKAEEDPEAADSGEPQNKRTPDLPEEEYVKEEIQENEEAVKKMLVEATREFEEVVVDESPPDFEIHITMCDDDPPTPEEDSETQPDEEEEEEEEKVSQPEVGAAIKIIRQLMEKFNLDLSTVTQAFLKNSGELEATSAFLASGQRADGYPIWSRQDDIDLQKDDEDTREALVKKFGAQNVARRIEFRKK
UniProt P01137, whole entry, looked up: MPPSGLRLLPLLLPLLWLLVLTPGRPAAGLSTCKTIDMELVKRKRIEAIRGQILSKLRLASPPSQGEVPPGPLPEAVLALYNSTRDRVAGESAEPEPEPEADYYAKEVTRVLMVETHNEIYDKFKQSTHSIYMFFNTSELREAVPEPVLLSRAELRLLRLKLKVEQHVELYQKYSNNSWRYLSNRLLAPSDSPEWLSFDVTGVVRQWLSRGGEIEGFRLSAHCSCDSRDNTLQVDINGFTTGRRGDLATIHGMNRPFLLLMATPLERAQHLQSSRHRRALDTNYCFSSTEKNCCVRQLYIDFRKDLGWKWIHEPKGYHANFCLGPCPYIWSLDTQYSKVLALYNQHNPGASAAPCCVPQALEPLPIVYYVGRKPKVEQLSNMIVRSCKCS
UniProt O60907: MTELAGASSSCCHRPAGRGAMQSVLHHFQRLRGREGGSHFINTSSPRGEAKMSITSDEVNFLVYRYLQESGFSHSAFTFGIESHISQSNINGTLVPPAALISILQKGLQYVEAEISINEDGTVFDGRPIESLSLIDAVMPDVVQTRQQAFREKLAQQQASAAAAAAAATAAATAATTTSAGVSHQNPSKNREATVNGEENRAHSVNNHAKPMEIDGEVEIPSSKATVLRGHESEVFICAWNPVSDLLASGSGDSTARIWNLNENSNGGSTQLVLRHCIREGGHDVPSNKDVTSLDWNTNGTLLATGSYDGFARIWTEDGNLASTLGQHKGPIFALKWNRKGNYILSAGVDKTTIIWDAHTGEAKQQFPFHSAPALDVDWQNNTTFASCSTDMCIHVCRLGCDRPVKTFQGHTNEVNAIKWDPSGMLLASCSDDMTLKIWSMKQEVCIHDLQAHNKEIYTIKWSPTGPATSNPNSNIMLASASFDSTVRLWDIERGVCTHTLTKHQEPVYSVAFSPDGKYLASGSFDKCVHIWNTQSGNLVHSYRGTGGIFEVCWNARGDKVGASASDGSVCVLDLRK
UniProt Q9Y5J6: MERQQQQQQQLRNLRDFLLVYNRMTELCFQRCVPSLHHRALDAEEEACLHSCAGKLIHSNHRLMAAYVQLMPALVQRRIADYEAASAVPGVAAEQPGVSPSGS
UniProt O43615: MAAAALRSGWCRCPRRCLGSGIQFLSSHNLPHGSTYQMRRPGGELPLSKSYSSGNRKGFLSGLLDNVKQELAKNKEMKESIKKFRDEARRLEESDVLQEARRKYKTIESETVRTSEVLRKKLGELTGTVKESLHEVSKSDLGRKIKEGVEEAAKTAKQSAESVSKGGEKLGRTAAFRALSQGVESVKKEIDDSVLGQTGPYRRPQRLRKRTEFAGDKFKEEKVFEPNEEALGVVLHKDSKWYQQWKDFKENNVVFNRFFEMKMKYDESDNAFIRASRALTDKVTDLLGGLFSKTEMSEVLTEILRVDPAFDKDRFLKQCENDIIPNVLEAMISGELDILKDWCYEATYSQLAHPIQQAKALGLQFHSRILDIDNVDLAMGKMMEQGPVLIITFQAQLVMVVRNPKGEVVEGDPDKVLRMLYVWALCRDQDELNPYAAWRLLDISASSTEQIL
UniProt Q92609: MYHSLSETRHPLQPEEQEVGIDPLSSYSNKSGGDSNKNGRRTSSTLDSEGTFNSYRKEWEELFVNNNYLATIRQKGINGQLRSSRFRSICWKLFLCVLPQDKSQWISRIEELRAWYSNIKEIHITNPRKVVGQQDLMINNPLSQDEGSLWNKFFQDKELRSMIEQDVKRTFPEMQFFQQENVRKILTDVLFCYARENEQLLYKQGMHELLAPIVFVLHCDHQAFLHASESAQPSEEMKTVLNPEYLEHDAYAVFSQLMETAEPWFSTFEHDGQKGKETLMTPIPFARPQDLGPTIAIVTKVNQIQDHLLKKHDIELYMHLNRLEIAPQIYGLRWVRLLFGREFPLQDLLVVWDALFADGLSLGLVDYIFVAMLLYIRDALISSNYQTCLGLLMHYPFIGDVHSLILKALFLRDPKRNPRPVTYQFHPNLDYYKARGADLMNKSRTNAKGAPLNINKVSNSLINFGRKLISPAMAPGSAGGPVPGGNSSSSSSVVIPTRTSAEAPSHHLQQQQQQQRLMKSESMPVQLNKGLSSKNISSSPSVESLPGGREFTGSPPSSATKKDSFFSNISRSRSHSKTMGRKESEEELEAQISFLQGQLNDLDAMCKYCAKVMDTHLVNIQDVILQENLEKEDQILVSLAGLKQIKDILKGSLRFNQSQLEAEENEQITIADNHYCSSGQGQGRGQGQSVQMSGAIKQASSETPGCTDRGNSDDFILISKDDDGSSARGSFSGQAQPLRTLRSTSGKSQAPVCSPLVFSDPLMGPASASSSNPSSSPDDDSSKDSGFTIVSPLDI
UniProt P35443: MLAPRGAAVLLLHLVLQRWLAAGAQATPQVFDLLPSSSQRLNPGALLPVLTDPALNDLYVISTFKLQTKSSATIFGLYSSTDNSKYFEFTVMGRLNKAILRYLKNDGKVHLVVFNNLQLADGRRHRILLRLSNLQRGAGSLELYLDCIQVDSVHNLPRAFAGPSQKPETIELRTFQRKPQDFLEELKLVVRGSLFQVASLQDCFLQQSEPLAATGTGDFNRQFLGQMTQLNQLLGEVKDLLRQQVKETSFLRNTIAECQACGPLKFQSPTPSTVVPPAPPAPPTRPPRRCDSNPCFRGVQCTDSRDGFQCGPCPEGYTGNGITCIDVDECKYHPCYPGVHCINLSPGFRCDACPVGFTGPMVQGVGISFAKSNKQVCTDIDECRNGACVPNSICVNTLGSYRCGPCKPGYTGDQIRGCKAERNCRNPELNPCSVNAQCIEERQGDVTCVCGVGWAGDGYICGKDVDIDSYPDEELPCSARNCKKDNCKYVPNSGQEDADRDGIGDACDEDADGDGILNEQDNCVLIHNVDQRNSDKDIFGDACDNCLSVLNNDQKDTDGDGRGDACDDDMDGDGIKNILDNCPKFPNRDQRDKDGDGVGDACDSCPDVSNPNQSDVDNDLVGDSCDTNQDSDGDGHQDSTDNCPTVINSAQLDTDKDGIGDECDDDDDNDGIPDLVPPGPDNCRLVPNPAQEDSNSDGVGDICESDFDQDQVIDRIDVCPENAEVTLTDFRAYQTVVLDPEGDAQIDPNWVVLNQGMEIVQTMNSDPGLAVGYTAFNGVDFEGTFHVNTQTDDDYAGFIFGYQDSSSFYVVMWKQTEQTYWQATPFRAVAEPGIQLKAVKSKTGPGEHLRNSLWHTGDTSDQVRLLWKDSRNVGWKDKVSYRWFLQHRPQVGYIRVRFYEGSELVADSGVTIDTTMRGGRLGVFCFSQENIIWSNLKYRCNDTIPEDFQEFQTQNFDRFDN

How the values were obtained:
Assay in all cases: log2 fold change, soluble protein after heating vs DMSO (PISA); higher = thermal stabilisation; K562 cells, 10 uM, 30 min; active = over 0.2 and 3.5 SD of the protein, either way, in both replicates (recomputed)
[1] = compound: Cc1ccc(NC(=O)c2ccc(CN3CC[C@H](N(C)C)C3)c(C(F)(F)F)c2)cc1Nc1nccc(-c2cncnc2)n1 [bafetinib]
Summary of the method: (§1)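 Quantification of soluble protein used TMTpro 16plex LC-MS/MS, with channel sums equalised. Samples were the supernatant after 21,000xg for 90 min of pooled aliquots from K562 cells (2×10^6 cells/mL) treated with 10 μM compound for 30 min, heated for 3 min over 48°C-58°C, and extracted in PBS with 0.5% NP-40 at 4°C. Values, from duplicates, describe thermal stability against control samples on a log2 fold-change scale.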

[2] = compound: Cc1cccc(CC(=O)N2CCc3c2ccc(-c2cn(C)c4ncnc(N)c24)c3F)n1
Summary of the method: as §1

[3] = compound: Cc1cn(-c2cc(NC(=O)c3ccc(C)c(Nc4nccc(-c5cccnc5)n4)c3)cc(C(F)(F)F)c2)cn1 [nilotinib]
Summary of the method: as §1

[4] = compound: Cc1nc(Nc2n[nH]c3c2CN(C(=O)N[C@H](CN(C)C)c2ccccc2)C3(C)C)c2sccc2n1
Summary of the method: as §1

[5] = compound: Cc1nc(Nc2ncc(C(=O)Nc3c(C)cccc3Cl)s2)cc(N2CCN(CCO)CC2)n1 [dasatinib]
Summary of the method: as §1

[6] = compound: Cc1ncc(-c2ccnc(Nc3ccc(S(C)(=O)=O)cc3)n2)n1C(C)C
Summary of the method: as §1

[7] = compound: Cn1cc(-c2ccc3c(c2)CCN3C(=O)Cc2cccc(C(F)(F)F)c2)c2c(N)ncnc21
Summary of the method: as §1

[8] = compound: Cn1cc(-c2ccc3nnc(C(F)(F)c4ccc5ncccc5c4)n3n2)cn1
Summary of the method: as §1

[9] = compound: Cn1cncc1[C@@](N)(c1ccc(Cl)cc1)c1ccc2c(c1)c(-c1cccc(Cl)c1)cc(=O)n2C [tipifarnib]
Summary of the method: as §1

[10] = compound: FC(F)(F)c1ccc(/C=C/c2nc(COc3ccc(CCCCn4ccnn4)cc3)co2)cc1 [mubritinib]
Summary of the method: as §1

Row | Target | log2 fold change [1] | log2 fold change [2] | log2 fold change [3] | log2 fold change [4] | log2 fold change [5] | log2 fold change [6] | log2 fold change [7] | log2 fold change [8] | log2 fold change [9] | log2 fold change [10]
1 | TBC1D22B (UniProt Q9NU19) | inactive: 0.016 | inactive: 0.027 | inactive: -0.038 | inactive: -0.099 | inactive: -0.124 | inactive: 0.003 | inactive: -0.018 | inactive: -0.163 | inactive: -0.065 | inactive: 0.002
2 | TGOLN2 isoform 7 (UniProt O43493) | inactive: -0.021 | inactive: -0.075 | inactive: 0.07 | inactive: 0 | inactive: 0.081 | inactive: 0.017 | inactive: 0.012 | inactive: 0.025 | inactive: 0.014 | inactive: -0.007
3 | TBCC (UniProt Q15814) | inactive: -0.061 | inactive: 0.029 | inactive: 0.019 | inactive: -0.031 | inactive: -0.02 | inactive: -0.008 | inactive: 0.092 | inactive: 0.035 | inactive: 0.014 | inactive: 0.039
4 | TBCB (UniProt Q99426) | inactive: -0.074 | inactive: 0.01 | inactive: -0.003 | inactive: -0.098 | inactive: -0.069 | inactive: -0.051 | inactive: 0 | inactive: 0.018 | inactive: -0.025 | inactive: 0.07
5 | TCIRG1 (UniProt Q13488) | inactive: 0.03 | inactive: -0.026 | inactive: 0.138 | inactive: 0.012 | inactive: -0.036 | inactive: -0.074 | inactive: -0.263 | inactive: 0.066 |  | 
6 | THUMPD2 (UniProt Q9BTF0) | inactive: -0.015 | inactive: -0.111 | inactive: 0.006 | inactive: 0.03 | inactive: 0.028 | inactive: 0.002 | inactive: -0.021 | inactive: -0.001 | inactive: -0.004 | inactive: -0.031
7 | TEX10 (UniProt Q9NXF1) | inactive: 0.009 | inactive: 0.004 |  |  |  |  |  |  |  | 
8 | TES (UniProt Q9UGI8) | inactive: -0.058 | inactive: 0.007 | inactive: 0.021 | inactive: -0.033 | inactive: -0.014 | inactive: 0.005 | inactive: 0.014 | inactive: 0.045 | inactive: -0.019 | inactive: 0.038
9 | TIMM9 (UniProt Q9Y5J7) | inactive: -0.034 | inactive: 0.062 | inactive: -0.002 | inactive: 0.004 | inactive: 0.025 | inactive: -0.046 | inactive: 0.148 | inactive: 0.317 | inactive: 0.037 | inactive: 0.055
10 | TFR2 (UniProt Q9UP52) | active: -0.226 | inactive: -0.012 | inactive: 0.012 | inactive: -0.074 | inactive: 0.006 | inactive: -0.026 | inactive: -0.019 | inactive: 0.054 | inactive: 0.025 | inactive: 0.041
11 | TCAF1 (UniProt Q9Y4C2) | inactive: -0.035 | inactive: 0.016 | inactive: -0.037 | inactive: -0.016 | inactive: -0.119 | inactive: -0.042 | inactive: -0.057 | inactive: -0.038 | inactive: 0.022 | inactive: 0.024
12 | TIMM22 (UniProt Q9Y584) | inactive: -0.055 | inactive: 0.08 | inactive: -0.018 | inactive: 0.042 | inactive: -0.037 | inactive: -0.022 | inactive: 0.041 | inactive: -0.056 | inactive: -0.035 | inactive: 0.001
13 | TBC1D9B (UniProt Q66K14) | inactive: -0.262 | inactive: -0.042 | inactive: -0.055 | inactive: 0.053 | inactive: -0.156 | inactive: -0.034 | inactive: 0.07 | inactive: -0.06 | inactive: 0.019 | inactive: 0.203
14 | TERF2IP (UniProt Q9NYB0) | inactive: -0.051 | inactive: -0.008 | inactive: -0.006 | inactive: -0.163 | inactive: -0.028 | inactive: -0.128 | inactive: -0.078 | inactive: -0.033 | inactive: 0.074 | inactive: -0.014
15 | TEX264 (UniProt Q9Y6I9) | inactive: 0.391 | inactive: 0.007 | inactive: 0.241 | inactive: 0.111 | inactive: 0.265 | active: 0.845 | inactive: 0.047 | inactive: 0.114 | inactive: -0.006 | inactive: 0.047
16 | TET1 (UniProt Q8NFU7) | inactive: 0 | inactive: 0.084 | inactive: -0.129 | inactive: 0.05 | inactive: 0.163 | inactive: -0.132 | inactive: 0.072 | inactive: 0.083 | inactive: -0.088 | inactive: 0.131
17 | TIPRL (UniProt O75663) | inactive: -0.052 | inactive: 0.066 | inactive: -0.022 | inactive: -0.025 | inactive: -0.103 | inactive: -0.035 | inactive: 0.032 | inactive: 0.048 | inactive: -0.16 | inactive: 0.098
18 | TBL3 (UniProt Q12788) | inactive: 0.024 | inactive: -0.017 | inactive: 0.004 | inactive: -0.009 | inactive: 0.022 | inactive: 0.074 | inactive: -0.038 | inactive: -0.055 | inactive: 0.101 | inactive: -0.065
19 | TBC1D24 (UniProt Q9ULP9) | inactive: -0.007 | inactive: 0.049 | inactive: -0.069 | active: -0.318 | inactive: -0.15 | inactive: -0.219 | inactive: 0.098 | inactive: -0.045 | inactive: -0.106 | inactive: 0.097
20 | TGFB1 (UniProt P01137) | inactive: -0.031 | inactive: -0.035 | inactive: 0.002 | inactive: 0.028 | inactive: 0.029 | inactive: -0.019 | inactive: 0.011 | inactive: -0.022 | inactive: 0.011 | inactive: 0.016
21 | TBL1X (UniProt O60907) | inactive: -0.052 | inactive: 0.061 | inactive: -0.026 | inactive: -0.001 | inactive: -0.042 | inactive: -0.017 | inactive: 0.018 | inactive: -0.039 | inactive: 0.02 | inactive: 0.056
22 | TIMM10B (UniProt Q9Y5J6) | inactive: 0.4 | inactive: -0.138 | inactive: 0.006 | inactive: -0.04 | inactive: 0.138 | inactive: -0.052 | inactive: 0.01 | inactive: 0.224 | inactive: -0.001 | inactive: 0.065
23 | TIMM44 (UniProt O43615) | active: -0.355 | inactive: 0.045 | inactive: -0.062 | inactive: -0.066 | inactive: -0.192 | inactive: 0.006 | inactive: 0.026 | inactive: -0.002 | inactive: -0.054 | inactive: 0.001
24 | TIAL1 isoform 2 (UniProt Q01085) | inactive: -0.072 | inactive: -0.028 | inactive: -0.023 | inactive: 0.036 | inactive: -0.021 | inactive: 0.074 | inactive: 0.009 | inactive: -0.001 | inactive: 0.015 | inactive: 0.013
25 | TECR (UniProt Q9NZ01) | inactive: -0.133 | inactive: 0.057 | inactive: -0.123 | inactive: -0.035 | inactive: -0.109 | inactive: 0.021 | inactive: -0.006 | inactive: -0.012 | inactive: -0.135 | inactive: 0.016
26 | THOC2 (UniProt Q8NI27) | inactive: 0.021 | inactive: 0.006 | inactive: -0.041 | inactive: -0.089 | inactive: -0.032 | inactive: -0.023 | inactive: -0.081 | inactive: -0.049 | inactive: 0.08 | inactive: -0.002
27 | TBC1D5 isoform 2 (UniProt Q92609) | inactive: -0.126 | inactive: 0.017 | inactive: -0.076 | inactive: -0.052 | inactive: -0.232 | inactive: 0.007 | inactive: -0.067 | inactive: -0.005 | inactive: -0.177 | inactive: -0.017
28 | THBS4 (UniProt P35443) | inactive: -0.178 | inactive: 0.559 | inactive: 0.114 | inactive: 0.05 | inactive: 0.017 | inactive: 0.189 | inactive: 0.204 | inactive: -0.045 | inactive: 0.082 | inactive: -0.154

Retrieved one by one from above:
Row | Target | log2 fold change [1] | log2 fold change [2] | log2 fold change [3] | log2 fold change [4] | log2 fold change [5] | log2 fold change [6] | log2 fold change [7] | log2 fold change [8] | log2 fold change [9] | log2 fold change [10]
2 | TGOLN2 isoform 7 (UniProt O43493) | inactive: -0.021 | inactive: -0.075 | inactive: 0.07 | inactive: 0 | inactive: 0.081 | inactive: 0.017 | inactive: 0.012 | inactive: 0.025 | inactive: 0.014 | inactive: -0.007
21 | TBL1X (UniProt O60907) | inactive: -0.052 | inactive: 0.061 | inactive: -0.026 | inactive: -0.001 | inactive: -0.042 | inactive: -0.017 | inactive: 0.018 | inactive: -0.039 | inactive: 0.02 | inactive: 0.056
